Taken from: PubChem BioAssay AID1259405 (NCATS, 2018)
Assay: 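Silenced genes that increase secreted GFP made by CHO cells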 (primary screen). Cell system: Chinese hamster CHO-K1 ovary cells with stable secreted eGFP expression. Knock-down reagent: single siRNA against mouse genes, 0.8 pmol siRNA per well (2 µl of 400 nM stock). Time to read-out: 3 days. Measured: 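Per-well intracellular GFP measured by laser scanning cytometry, plus viability from ATP luminescence, each relative to plate median of non-targeting control wells, in %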. Scale: GFP, % of control: higher = more GFP per well, higher productivity; viability (ATP), % of control: higher = more viable cells (more ATP). Rule for the call: 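Called active when intracellular GFP, relative to negative control, is at or above 120%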.
Here is a random part of about 50,000 reagents. About 4,000 of them (8%) count as active. 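Mouse siRNA library applied to hamster cells; one well for each siRNA.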 The numbers tell different reagents against one gene apart. Reagent sequences are not shown.

For Or2y1g (olfactory receptor family 2 subfamily Y member 1G) #1, how do the results read?
GFP, % of control: 84.5; viability (ATP), % of control: 79.1; call: inactive

For Or2y1g (olfactory receptor family 2 subfamily Y member 1G) #2, how do the results read?
GFP, % of control: 96.2; viability (ATP), % of control: 75.9; call: inactive

What is on record for Or2y1g (olfactory receptor family 2 subfamily Y member 1G) #3?
GFP, % of control: 55.4; viability (ATP), % of control: 92.9; call: inactive

Which result is listed for Or2a56 (olfactory receptor family 2 subfamily A member 56) #1?
GFP, % of control: 43.3; viability (ATP), % of control: 39; call: inactive

What is on record for Or2a56 (olfactory receptor family 2 subfamily A member 56) #2?
GFP, % of control: 105; viability (ATP), % of control: 77.9; call: inactive

How did the screen score Or2a56 (olfactory receptor family 2 subfamily A member 56) #3?
GFP, % of control: 67.9; viability (ATP), % of control: 65.2; call: inactive

What did the screen give for Wipf2 (WAS/WASL interacting protein family, member 2) #1?
GFP, % of control: 92.3; viability (ATP), % of control: 44.5; call: inactive

With Wipf2 (WAS/WASL interacting protein family, member 2) #2, what was measured?
GFP, % of control: 82; viability (ATP), % of control: 61.3; call: inactive

Which result is listed for Wipf2 (WAS/WASL interacting protein family, member 2) #3?
GFP, % of control: 38.9; viability (ATP), % of control: 53.5; call: inactive

For Ttf1 (transcription termination factor, RNA polymerase I) #1, what does the deposit list?
GFP, % of control: 65.1; viability (ATP), % of control: 81.4; call: inactive

How did the screen score Ttf1 (transcription termination factor, RNA polymerase I) #2?
GFP, % of control: 88.1; viability (ATP), % of control: 96.7; call: inactive

With Rpl4 (ribosomal protein L4) #1, what was measured?
GFP, % of control: 75.9; viability (ATP), % of control: 88.3; call: inactive

With Rpl4 (ribosomal protein L4) #2, what does the deposit list?
GFP, % of control: 60.1; viability (ATP), % of control: 42.4; call: inactive

For Rpl4 (ribosomal protein L4) #3, how do the results read?
GFP, % of control: 41.8; viability (ATP), % of control: 53.9; call: inactive

How did the screen score Golt1b (golgi transport 1B) #1?
GFP, % of control: 98.2; viability (ATP), % of control: 74.4; call: inactive

How did the screen score Golt1b (golgi transport 1B) #2?
GFP, % of control: 103; viability (ATP), % of control: 83.9; call: inactive

With Golt1b (golgi transport 1B) #3, what does the deposit list?
GFP, % of control: 74.4; viability (ATP), % of control: 71.9; call: inactive

For Or2t49 (olfactory receptor family 2 subfamily T member 49) #1, what was measured?
GFP, % of control: 34.8; viability (ATP), % of control: 52; call: inactive

What did the screen give for Or2t49 (olfactory receptor family 2 subfamily T member 49) #2?
GFP, % of control: 79.2; viability (ATP), % of control: 79.6; call: inactive

For Or2t49 (olfactory receptor family 2 subfamily T member 49) #3, what was measured?
GFP, % of control: 53.4; viability (ATP), % of control: 74.2; call: inactive

With 9130230L23Rik (RIKEN cDNA 9130230L23 gene) #1, what does the deposit list?
GFP, % of control: 141; viability (ATP), % of control: 101; call: active

With 9130230L23Rik (RIKEN cDNA 9130230L23 gene) #2, what was measured?
GFP, % of control: 77.6; viability (ATP), % of control: 77; call: inactive

With 9130230L23Rik (RIKEN cDNA 9130230L23 gene) #3, what does the deposit list?
GFP, % of control: 117; viability (ATP), % of control: 105; call: inactive

What did the screen give for Pcdhb17 (protocadherin beta 17) #1?
GFP, % of control: 79.3; viability (ATP), % of control: 84.4; call: inactive

How did the screen score Pcdhb17 (protocadherin beta 17) #2?
GFP, % of control: 88.2; viability (ATP), % of control: 81.7; call: inactive

What is on record for Gmnc (geminin coiled-coil domain containing) #1?
GFP, % of control: 37.9; viability (ATP), % of control: 50.5; call: inactive

How did the screen score Gmnc (geminin coiled-coil domain containing) #2?
GFP, % of control: 64; viability (ATP), % of control: 94.8; call: inactive

Which result is listed for Gmnc (geminin coiled-coil domain containing) #3?
GFP, % of control: 71.5; viability (ATP), % of control: 77.9; call: inactive
